Experimental data taken from patent US8138119B2, “Alkoxyalkyl spirocyclic tetramic acids and tetronic acids” (Bayer Cropscience AG, priority 2005, dated 2012).
Some results were stated once for a whole list of compounds, not compound by compound.

Tests used:
Type in all cases: in vivo
[1] = tested on: larvae of the mustard beetle (Phaedon cochleariae); test: Phaedon test (PHAECO spray treatment); settings: 500 g/ha of a.i., after 7 d, Chinese cabbage disks sprayed
[2] = tested on: green peach aphid (Myzus persicae); test: Myzus test (MYZUPE spray treatment); settings: 500 g/ha of a.i., after 5 d, Chinese cabbage disks sprayed
[3] = tested on: cotton aphid (Aphis gossypii); test: Aphis gossypii test (APHIGO); settings: 100 ppm, cotton leaves dipped
[4] = tested on: greenhouse rat spider mite (Tetranychus urticae); test: Tetranychus test; OP resistant/systemic treatment (TETRUR SYS); settings: 20 ppm, bean plants watered, systemic
[5] = tested on: greenhouse rat spider mite (Tetranychus urticae); test: Tetranychus test; OP resistant (TETRUR spray treatment); settings: 100 g/ha of a.i., after 5 d, bean leaf disks sprayed
[6] = tested on: green peach aphid (Myzus persicae); test: Myzus persicae test; systemic treatment (MYZUPE SYS); settings: 20 ppm in water, pea plant
Lolium multiflorum [7] = test: Herbicidal pre-emergence action; settings: 320 g/ha of a.i., 3 weeks
Setaria viridis [8] = test: Herbicidal pre-emergence action; settings: 320 g/ha of a.i., 3 weeks
Avena sativa = test: Herbicidal post-emergence action; settings: 320 g/ha of a.i., about 3 weeks
Lolium multiflorum [9] = test: Herbicidal post-emergence action; settings: 320 g/ha of a.i., about 3 weeks
Setaria viridis [10] = test: Herbicidal post-emergence action; settings: 320 g/ha of a.i., about 3 weeks
Echinochloa crusgalli = test: Herbicidal post-emergence action; settings: 320 g/ha of a.i., about 3 weeks

CCOC(=O)OC1=C(c2cc(C)ccc2C)C(=O)NC12CCCC(COC)C2 (single isomer, unassigned) [Example I-1-c-2]
≥ 80%: efficacy (beetle larvae killed) [1] | efficacy (aphids killed) [2] | efficacy (kill of aphids) [3] | efficacy (spider mites killed) [4]

COCC1CCCC2(C1)NC(=O)C(c1c(C)cc(C)cc1C)=C2O (single isomer, unassigned) [Example I-1-a-7]
≥ 80%: efficacy (beetle larvae killed) [1] | efficacy (aphids killed) [2] | efficacy (spider mites killed) [5] | efficacy (kill of aphids) [6] | efficacy (kill of aphids) [3] | herbicidal activity against Lolium multiflorum (Lolium multiflorum [7]) | herbicidal activity against Setaria viridis (Setaria viridis [8]) | herbicidal activity against Avena sativa (Avena sativa) | herbicidal activity against Lolium multiflorum (Lolium multiflorum [9]) | herbicidal activity against Setaria viridis (Setaria viridis [10]) | herbicidal activity against Echinochloa crusgalli (Echinochloa crusgalli)
